# In article PMC8101327:
# Sequences of proteins named here, by UniProt entry; tags and fusion partners are left off.
# UniProt Q05397: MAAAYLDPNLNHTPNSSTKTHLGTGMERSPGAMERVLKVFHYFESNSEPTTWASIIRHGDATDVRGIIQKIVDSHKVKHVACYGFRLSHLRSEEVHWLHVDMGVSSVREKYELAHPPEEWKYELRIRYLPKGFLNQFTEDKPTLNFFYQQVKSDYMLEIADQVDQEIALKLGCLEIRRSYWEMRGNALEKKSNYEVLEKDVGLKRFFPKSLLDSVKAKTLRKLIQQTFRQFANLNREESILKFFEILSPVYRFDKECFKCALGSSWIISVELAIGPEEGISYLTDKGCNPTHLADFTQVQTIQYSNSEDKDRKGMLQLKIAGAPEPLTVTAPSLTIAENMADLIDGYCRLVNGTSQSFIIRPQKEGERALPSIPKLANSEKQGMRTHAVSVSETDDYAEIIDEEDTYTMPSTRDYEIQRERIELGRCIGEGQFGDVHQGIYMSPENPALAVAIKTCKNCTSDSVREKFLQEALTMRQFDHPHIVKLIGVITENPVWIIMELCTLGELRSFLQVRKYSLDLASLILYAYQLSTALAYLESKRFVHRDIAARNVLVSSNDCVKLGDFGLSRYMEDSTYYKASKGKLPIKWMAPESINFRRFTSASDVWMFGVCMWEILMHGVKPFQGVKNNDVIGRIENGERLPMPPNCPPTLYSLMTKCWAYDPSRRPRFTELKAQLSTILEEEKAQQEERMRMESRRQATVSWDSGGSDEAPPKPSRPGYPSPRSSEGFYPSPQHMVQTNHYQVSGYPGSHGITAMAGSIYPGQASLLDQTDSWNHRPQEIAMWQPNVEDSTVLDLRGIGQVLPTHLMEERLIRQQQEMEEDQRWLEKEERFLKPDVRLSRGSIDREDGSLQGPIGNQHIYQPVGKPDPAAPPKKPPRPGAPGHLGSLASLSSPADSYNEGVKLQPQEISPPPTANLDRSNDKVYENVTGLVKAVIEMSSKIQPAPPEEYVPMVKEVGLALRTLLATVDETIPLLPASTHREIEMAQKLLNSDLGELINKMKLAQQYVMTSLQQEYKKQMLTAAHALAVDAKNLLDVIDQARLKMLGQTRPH
# Results are given in words; binding and its absence hold for the method and conditions named. In cells and extracts the contact can be indirect. Some binding calls cover weakened binding; strength is not graded here.
# Target: T1, Brain and Acute Leukemia, Cytoplasmic (BAALC) (human) (UniProt Q8WXS3)
# T1 sequence: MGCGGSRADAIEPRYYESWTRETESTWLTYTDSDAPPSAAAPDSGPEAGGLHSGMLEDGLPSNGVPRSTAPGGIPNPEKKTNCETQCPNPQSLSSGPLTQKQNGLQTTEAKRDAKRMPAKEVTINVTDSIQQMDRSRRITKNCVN
# Assay: co-IP; MCF-7-EV and MCF-7-BAALC cell lysates (500 µg) incubated with BAALC antibody, FAK antibody or IgG control and Protein A/G agarose overnight at 4°C; beads washed 3 times in TBST; BAALC and FAK detected by western blotting
substance,measurement,value
focal adhesion kinase (FAK) (from UniProt Q05397 1-1052),binding,binds
